Laboratory results as given in publication PMC6769652.
These are yes or no findings as the source states them, for the method shown. Binding seen in cells or lysates may run through a third protein. Some entries that bind do so weakly or less than the wild type. Sequences can lack the tags named with a protein.

Experiments:
[1] = molecular target: T1, EGFP-WBSCR22 (human) (UniProt O43709); assay: co-IP; U2OS cells transfected with EGFP fusions, treated with 5 µM MG132 for 16 h; GFP-Trap_M magnetic beads; blot with anti-EGFP and anti-TRMT112
T1 sequence: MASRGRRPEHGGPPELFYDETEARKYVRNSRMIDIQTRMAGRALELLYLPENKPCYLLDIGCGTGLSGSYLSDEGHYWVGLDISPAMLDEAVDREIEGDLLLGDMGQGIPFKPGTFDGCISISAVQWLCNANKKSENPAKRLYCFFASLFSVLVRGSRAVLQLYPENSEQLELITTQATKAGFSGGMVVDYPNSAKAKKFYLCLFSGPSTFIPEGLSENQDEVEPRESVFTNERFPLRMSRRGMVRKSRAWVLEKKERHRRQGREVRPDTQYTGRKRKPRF

[2] = molecular target: T1, EGFP-WBSCR22 (human); assay: co-IP; HeLa cells transfected with EGFP fusions, treated with 0 µM or 5 µM MG132 for 16 h; GFP-Trap_M magnetic beads; blot with anti-EGFP, anti-TRMT112 and anti-α-tubulin

TRMT112 protein (from UniProt Q9UI30 1-125)
binding [1]: binds
binding [2]: binds
